Results are given in words; binding and its absence hold for the method and conditions named. In cells and extracts the contact can be indirect. These calls come from enrichment with a bait or labelling near it, and not all partners need be listed.

Amino acid sequences for entries named in this document (tags omitted).
UniProt Q8IWE2: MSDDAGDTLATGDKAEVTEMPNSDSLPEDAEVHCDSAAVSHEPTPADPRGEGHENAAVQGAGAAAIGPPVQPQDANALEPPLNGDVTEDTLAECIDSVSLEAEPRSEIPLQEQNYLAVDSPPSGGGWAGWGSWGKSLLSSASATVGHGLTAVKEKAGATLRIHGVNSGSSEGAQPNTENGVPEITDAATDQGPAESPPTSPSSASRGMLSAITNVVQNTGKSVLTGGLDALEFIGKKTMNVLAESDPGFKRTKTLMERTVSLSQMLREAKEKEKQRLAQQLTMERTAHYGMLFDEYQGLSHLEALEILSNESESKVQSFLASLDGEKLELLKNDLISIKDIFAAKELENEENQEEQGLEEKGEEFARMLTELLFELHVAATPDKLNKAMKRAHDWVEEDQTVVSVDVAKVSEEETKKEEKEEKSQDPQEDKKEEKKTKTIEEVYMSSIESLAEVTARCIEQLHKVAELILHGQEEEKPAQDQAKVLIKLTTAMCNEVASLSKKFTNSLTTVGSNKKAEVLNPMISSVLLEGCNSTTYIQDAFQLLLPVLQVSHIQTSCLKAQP
UniProt Q16254: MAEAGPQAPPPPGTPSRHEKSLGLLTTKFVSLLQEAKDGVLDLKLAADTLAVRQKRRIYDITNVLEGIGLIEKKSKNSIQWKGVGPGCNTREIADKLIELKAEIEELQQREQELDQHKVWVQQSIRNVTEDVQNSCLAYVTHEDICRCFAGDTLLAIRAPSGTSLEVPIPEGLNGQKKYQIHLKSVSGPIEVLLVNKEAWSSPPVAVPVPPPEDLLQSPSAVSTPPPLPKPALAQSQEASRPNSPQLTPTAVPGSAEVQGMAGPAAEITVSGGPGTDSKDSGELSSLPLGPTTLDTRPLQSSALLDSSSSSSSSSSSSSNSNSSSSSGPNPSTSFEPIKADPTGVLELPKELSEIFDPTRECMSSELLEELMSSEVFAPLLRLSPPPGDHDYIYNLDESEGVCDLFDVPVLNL
UniProt P27986: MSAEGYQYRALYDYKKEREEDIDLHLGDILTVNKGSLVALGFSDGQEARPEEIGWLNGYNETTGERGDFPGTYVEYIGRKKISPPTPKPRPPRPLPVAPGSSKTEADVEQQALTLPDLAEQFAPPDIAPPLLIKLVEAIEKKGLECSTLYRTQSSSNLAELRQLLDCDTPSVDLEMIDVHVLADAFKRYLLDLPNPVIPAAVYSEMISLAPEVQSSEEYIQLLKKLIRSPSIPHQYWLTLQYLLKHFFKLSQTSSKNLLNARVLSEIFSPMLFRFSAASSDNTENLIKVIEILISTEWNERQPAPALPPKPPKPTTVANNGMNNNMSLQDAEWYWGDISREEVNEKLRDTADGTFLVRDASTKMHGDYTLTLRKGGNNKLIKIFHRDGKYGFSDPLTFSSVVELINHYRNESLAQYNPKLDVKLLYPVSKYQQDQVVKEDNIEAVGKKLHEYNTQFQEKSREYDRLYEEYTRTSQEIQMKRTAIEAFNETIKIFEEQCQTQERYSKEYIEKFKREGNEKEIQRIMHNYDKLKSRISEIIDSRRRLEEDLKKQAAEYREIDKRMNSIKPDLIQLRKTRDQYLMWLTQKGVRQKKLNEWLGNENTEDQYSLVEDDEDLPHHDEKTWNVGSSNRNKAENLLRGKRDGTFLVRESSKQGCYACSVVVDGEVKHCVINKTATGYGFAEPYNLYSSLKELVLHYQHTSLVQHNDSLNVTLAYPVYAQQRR

This experiment addresses FAM114A1, bait of the co-IP followed by mass spectrometry (UniProt Q8IWE2). Description: affinity purification with mass spectrometry; co-IP of FAM114A1; samples separated by SDS-PAGE, Coomassie stained, in-gel digestion, nano-HPLC-MS/MS; spectra searched against a human protein database; cells not told.

As to “E2F4, found in the FAM114A1 co-IP by mass spectrometry (from UniProt Q16254 1-413)”, the binding result is recorded as “binds”.
Then “p85α, found in the FAM114A1 co-IP by mass spectrometry (from UniProt P27986 1-724)”, with “binds”.

Values taken from paper PMC12624017.
